Amino acid sequences for entries named in this document (tags omitted). Residues count along the entry.
UniProt P0AE06, residues 25-397: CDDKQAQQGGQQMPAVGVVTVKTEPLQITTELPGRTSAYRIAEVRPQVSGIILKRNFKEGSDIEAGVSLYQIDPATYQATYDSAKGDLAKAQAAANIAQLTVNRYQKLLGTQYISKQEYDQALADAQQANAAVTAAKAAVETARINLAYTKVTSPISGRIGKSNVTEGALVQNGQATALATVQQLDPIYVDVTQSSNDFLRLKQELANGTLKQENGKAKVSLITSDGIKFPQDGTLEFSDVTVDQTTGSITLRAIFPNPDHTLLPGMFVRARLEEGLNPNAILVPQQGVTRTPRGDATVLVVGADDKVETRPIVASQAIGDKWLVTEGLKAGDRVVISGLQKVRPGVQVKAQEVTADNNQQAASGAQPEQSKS
UniProt P02943, residues 26-446: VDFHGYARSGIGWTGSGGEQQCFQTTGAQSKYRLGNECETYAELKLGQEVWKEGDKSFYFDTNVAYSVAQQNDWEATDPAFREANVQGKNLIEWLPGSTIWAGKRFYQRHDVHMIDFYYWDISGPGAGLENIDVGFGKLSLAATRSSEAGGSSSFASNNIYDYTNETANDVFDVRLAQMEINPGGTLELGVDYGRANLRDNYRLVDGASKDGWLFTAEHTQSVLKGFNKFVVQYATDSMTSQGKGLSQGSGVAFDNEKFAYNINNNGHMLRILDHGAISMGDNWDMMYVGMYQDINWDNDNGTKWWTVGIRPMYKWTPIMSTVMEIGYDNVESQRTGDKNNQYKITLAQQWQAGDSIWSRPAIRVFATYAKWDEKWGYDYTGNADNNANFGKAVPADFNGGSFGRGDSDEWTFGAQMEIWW
UniProt P31554, residues 25-784: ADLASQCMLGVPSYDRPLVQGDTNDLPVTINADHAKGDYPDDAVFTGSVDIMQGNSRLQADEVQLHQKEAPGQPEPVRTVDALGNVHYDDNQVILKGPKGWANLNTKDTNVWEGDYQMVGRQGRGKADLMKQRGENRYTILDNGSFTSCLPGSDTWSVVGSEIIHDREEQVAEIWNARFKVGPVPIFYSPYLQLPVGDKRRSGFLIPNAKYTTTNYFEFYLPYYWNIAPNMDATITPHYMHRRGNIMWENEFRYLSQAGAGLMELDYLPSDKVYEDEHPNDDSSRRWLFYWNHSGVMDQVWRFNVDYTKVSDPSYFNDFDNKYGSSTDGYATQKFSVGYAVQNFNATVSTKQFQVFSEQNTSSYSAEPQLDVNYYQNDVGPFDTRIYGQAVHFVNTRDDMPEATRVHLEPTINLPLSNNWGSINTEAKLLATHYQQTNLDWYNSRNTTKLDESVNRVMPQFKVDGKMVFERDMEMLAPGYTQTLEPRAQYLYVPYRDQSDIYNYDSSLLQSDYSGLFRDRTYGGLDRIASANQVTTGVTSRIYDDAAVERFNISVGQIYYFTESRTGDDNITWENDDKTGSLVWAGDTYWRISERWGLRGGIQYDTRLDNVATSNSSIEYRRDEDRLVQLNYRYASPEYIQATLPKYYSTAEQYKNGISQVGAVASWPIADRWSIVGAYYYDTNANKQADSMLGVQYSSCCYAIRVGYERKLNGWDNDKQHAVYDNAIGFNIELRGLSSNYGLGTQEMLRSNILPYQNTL
UniProt P0A905, residues 18-155: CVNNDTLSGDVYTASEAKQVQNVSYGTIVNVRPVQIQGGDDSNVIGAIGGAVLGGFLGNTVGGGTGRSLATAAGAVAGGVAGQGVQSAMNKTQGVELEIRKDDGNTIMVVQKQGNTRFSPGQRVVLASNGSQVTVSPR

In publication doi:10.64898/2025.12.22.696046:

T1: His×6-tagged YfgH (E. coli) (UniProt P65290)
T1 sequence: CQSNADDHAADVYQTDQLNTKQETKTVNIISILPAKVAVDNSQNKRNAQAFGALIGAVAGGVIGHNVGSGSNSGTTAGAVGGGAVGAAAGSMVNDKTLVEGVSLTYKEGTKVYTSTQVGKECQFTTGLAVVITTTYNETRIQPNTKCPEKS

B1: NarG (protein, UniProt P09152 1-1247)
chain: MSKFLDRFRYFKQKGETFADGHGQLLNTNRDWEDGYRQRWQHDKIVRSTHGVNCTGSCSWKIYVKNGLVTWETQQTDYPRTRPDLPNHEPRGCPRGASYSWYLYSANRLKYPMMRKRLMKMWREAKALHSDPVEAWASIIEDADKAKSFKQARGRGGFVRSSWQEVNELIAASNVYTIKNYGPDRVAGFSPIPAMSMVSYASGARYLSLIGGTCLSFYDWYCDLPPASPQTWGEQTDVPESADWYNSSYIIAWGSNVPQTRTPDAHFFTEVRYKGTKTVAVTPDYAEIAKLCDLWLAPKQGTDAAMALAMGHVMLREFHLDNPSQYFTDYVRRYTDMPMLVMLEERDGYYAAGRMLRAADLVDALGQENNPEWKTVAFNTNGEMVAPNGSIGFRWGEKGKWNLEQRDGKTGEETELQLSLLGSQDEIAEVGFPYFGGDGTEHFNKVELENVLLHKLPVKRLQLADGSTALVTTVYDLTLANYGLERGLNDVNCATSYDDVKAYTPAWAEQITGVSRSQIIRIAREFADNADKTHGRSMIIVGAGLNHWYHLDMNYRGLINMLIFCGCVGQSGGGWAHYVGQEKLRPQTGWQPLAFALDWQRPARHMNSTSYFYNHSSQWRYETVTAEELLSPMADKSRYTGHLIDFNVRAERMGWLPSAPQLGTNPLTIAGEAEKAGMNPVDYTVKSLKEGSIRFAAEQPENGKNHPRNLFIWRSNLLGSSGKGHEFMLKYLLGTEHGIQGKDLGQQGGVKPEEVDWQDNGLEGKLDLVVTLDFRLSSTCLYSDIILPTATWYEKDDMNTSDMHPFIHPLSAAVDPAWEAKSDWEIYKAIAKKFSEVCVGHLGKETDIVTLPIQHDSAAELAQPLDVKDWKKGECDLIPGKTAPHIMVVERDYPATYERFTSIGPLMEKIGNGGKGIAWNTQSEMDLLRKLNYTKAEGPAKGQPMLNTAIDAAEMILTLAPETNGQVAVKAWAALSEFTGRDHTHLALNKEDEKIRFRDIQAQPRKIISSPTWSGLEDEHVSYNAGYTNVHELIPWRTLSGRQQLYQDHQWMRDFGESLLVYRPPIDTRSVKEVIGQKSNGNQEKALNFLTPHQKWGIHSTYSDNLLMLTLGRGGPVVWLSEADAKDLGIADNDWIEVFNSNGALTARAVVSQRVPAGMTMMYHAQERIVNLPGSEITQQRGGIHNSVTRITPKPTHMIGGYAHLAYGFNYYGTVGSNRDEFVVVRKMKNIDWLDGEGNDQVQESVK
B2: Slp (protein, UniProt P37194 19-188)
chain: CSSIPQNIKGNNQPDIQKSFVAVHNQPGLYVGQQARFGGKVINVINGKTDTLLEISVLPLDSYAKPDIEANYQGRLLARQSGFLDPVNYRNHFVTILGTIQGEQPGFINKVPYNFLEVNMQGIQVWHLREVVNTTYNLWDYGYGAFWPEPGWGAPYYTNAVSQVTPELVK
B3: DegP (protein, UniProt P0C0V0 27-474)
chain: AETSSATTAQQMPSLAPMLEKVMPSVVSINVEGSTTVNTPRMPRNFQQFFGDDSPFCQEGSPFQSSPFCQGGQGGNGGGQQQKFMALGSGVIIDADKGYVVTNNHVVDNATVIKVQLSDGRKFDAKMVGKDPRSDIALIQIQNPKNLTAIKMADSDALRVGDYTVAIGNPFGLGETVTSGIVSALGRSGLNAENYENFIQTDAAINRGNSGGALVNLNGELIGINTAILAPDGGNIGIGFAIPSNMVKNLTSQMVEYGQVKRGELGIMGTELNSELAKAMKVDAQRGAFVSQVLPNSSAAKAGIKAGDVITSLNGKPISSFAALRAQVGTMPVGSKLTLGLLRDGKQVNVNLELQQSSQNQVDSSSIFNGIEGAEMSNKGKDQGVVVNNVKTGTPAAQIGLKKGDVIIGANQQAVKNIAELRKVLDSKPSVLALNIQRGDSTIYLLMQ

Biological target: T1, His×6-tagged YfgH (E. coli)
Experiment: affinity purification with mass spectrometry

binding | Molecule
binds | AcrA (from UniProt P0AE06 25-397)
binds | FyuA (E. coli (endogenous in MP1))
binds | LamB (from UniProt P02943 26-446)
binds | LptD (from UniProt P31554 25-784)
binds | ShuA (E. coli (endogenous in MP1))
binds | SlyB (from UniProt P0A905 18-155)
binds | B1
binds | B2
binds | B3

No constants are given. Whether binding was seen depends on the method and setting. Binding seen in cells or lysates may run through a third protein. Here binding means that the protein was enriched with, or labelled near, the bait; the list need not be complete. Where a sequence is shown, tags or fusion partners need not be part of it.
